Laboratory results: article PMC7157757
No constants are given. Whether binding was seen depends on the method and setting. Some results given as binding are weak or reduced against the parent protein; the word gives no strength.

Amino acid sequences for entries named in this document (tags omitted).
UniProt P08621: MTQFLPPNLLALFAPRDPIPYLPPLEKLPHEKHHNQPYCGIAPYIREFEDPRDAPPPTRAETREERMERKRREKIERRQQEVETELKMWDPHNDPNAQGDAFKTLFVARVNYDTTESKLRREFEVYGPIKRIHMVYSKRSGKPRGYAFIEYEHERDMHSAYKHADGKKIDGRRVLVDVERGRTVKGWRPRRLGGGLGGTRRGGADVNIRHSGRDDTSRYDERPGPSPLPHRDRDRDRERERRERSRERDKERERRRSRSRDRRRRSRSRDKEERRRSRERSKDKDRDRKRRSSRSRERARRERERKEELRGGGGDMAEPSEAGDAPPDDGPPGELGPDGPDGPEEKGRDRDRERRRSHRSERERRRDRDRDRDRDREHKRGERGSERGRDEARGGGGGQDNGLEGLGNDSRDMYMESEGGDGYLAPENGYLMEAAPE

Key:
[1] = biological target: Recombinant I. scapularis AKR/SUB (Ixodes scapularis) (UniProt Q4VRW2); experiment: native gel or EMSA; 5 µg of each protein in 20 µl PBS, shaking, 4 °C overnight; 12% polyacrylamide gel under non-denaturing conditions, Coomassie stain or Western blot with rabbit IgG against tick SUB; both purified
[2] = biological target: Recombinant human (Myc-DDK-tagged) AKR2 (human) (UniProt Q53H80); experiment: pull-down; recombinant interacting protein incubated with Myc-DDK-tagged AKR2 for 2 h, then 30 min with c-Myc magnetic beads, shaking, room temperature; eluted with Laemmli sample buffer; Western blot with antibodies specific for the interacting protein; both purified

| binding [1] | binding [2] | Substance |
| --- | --- | --- |
| binds | – | Recombinant I. scapularis AKR/SUB (from UniProt Q4VRW2 1-184) |
| – | no binding | U1 small nuclear ribonucleoprotein 70 kDa, recombinant (from UniProt P08621 1-437) |
